# Source: the supplement of paper PMC8728848
# Some of the results follow.
# B1: Epa20 (Candida glabrata) (protein)
# chain: MGSSHHHHHHSSGLVPRGSHMASSNIPNNYPLGCSNKYSGHLPGLKMELYSYNYVNPRHPDPQNPGKLDQLYDPNLLGTYECFDSSYKDINYPRVGYKSKTLIGRSDGVSGILNFNFVPPWGCMPQKGQLPPAYNFKSNITLSNFTMILFGYFKPKISGNHIFSLHGDDLIYLNFGAGNAFDCCRQESSADNFGNYQAFSLWGINWEKKTLTVYLDMNTYYPIRIFYNNRDYQAIFNFSFKTEFDSSPVIDFQDYFFFLRDIDGGCPGEV
# Columns and labels:
# Test in all cases: glycan array binding signal (z-score within array); higher = stronger binding
# Conditions in all cases: glycan notation: IUPAC condensed, linker removed
# [1] = target: Neu5Ac(a2-3)Gal(b1-4)GlcNAc(b1-2)Man(a1-3)[Neu5Ac(a2-6)Gal(b1-4)GlcNAc(b1-2)Man(a1-6)]Man(b1-4)GlcNAc(b1-4)GlcNAc
# Procedure, shortened: (§1)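 Columns mapping to the same glycan were averaged after glycan names were converted to IUPAC-condensed notation. The data come from 3228 arrays in the Consortium for Functional Glycomics database, limited to those with an available protein sequence. Binding is reported as a within-array Z-score averaged across arrays of one protein sequence and across linkers.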
# [2] = target: Neu5Ac(a2-3)Gal(b1-4)GlcNAc(b1-2)[Neu5Ac(a2-3)Gal(b1-4)GlcNAc(b1-4)]Man(a1-3)[GlcNAc(b1-4)][Neu5Ac(a2-3)Gal(b1-4)GlcNAc(b1-2)[Neu5Ac(a2-3)Gal(b1-4)GlcNAc(b1-6)]Man(a1-6)]Man(b1-4)GlcNAc(b1-4)GlcNAc
# Procedure, shortened: as §1
# [3] = target: Neu5Ac(a2-3)Gal(b1-4)GlcNAc(b1-2)[Neu5Ac(a2-3)Gal(b1-4)GlcNAc(b1-4)]Man(a1-3)[GlcNAc(b1-4)][Neu5Ac(a2-3)Gal(b1-4)GlcNAc(b1-4)Man(a1-6)]Man(b1-4)GlcNAc(b1-4)GlcNAc
# Procedure, shortened: as §1
# [4] = target: Neu5Ac(a2-3)Gal(b1-4)GlcNAc(b1-2)[Neu5Ac(a2-3)Gal(b1-4)GlcNAc(b1-6)]Man(a1-6)[Neu5Ac(a2-3)Gal(b1-4)GlcNAc(b1-2)Man(a1-3)][GlcNAc(b1-4)]Man(b1-4)GlcNAc(b1-4)GlcNAc
# Procedure, shortened: as §1
# [5] = target: Neu5Ac(a2-3)Gal(b1-4)GlcNAc(b1-3)Gal
# Procedure, shortened: as §1
# [6] = target: Neu5Ac(a2-3)Gal(b1-4)GlcNAc(b1-3)Gal(b1-3)GlcNAc
# Procedure, shortened: as §1
# [7] = target: Neu5Ac(a2-3)Gal(b1-4)GlcNAc(b1-3)Gal(b1-4)GlcNAc
# Procedure, shortened: as §1
# [8] = target: Neu5Ac(a2-3)Gal(b1-4)GlcNAc(b1-3)Gal(b1-4)GlcNAc(b1-2)Man(a1-3)[Neu5Ac(a2-3)Gal(b1-4)GlcNAc(b1-3)Gal(b1-4)GlcNAc(b1-2)Man(a1-6)]Man(b1-4)GlcNAc(b1-4)GlcNAc
# Procedure, shortened: as §1
# [9] = target: Neu5Ac(a2-3)Gal(b1-4)GlcNAc(b1-3)Gal(b1-4)GlcNAc(b1-3)Gal(b1-4)GlcNAc
# Procedure, shortened: as §1
# [10] = target: Neu5Ac(a2-3)Gal(b1-4)GlcNAc(b1-3)Gal(b1-4)GlcNAc(b1-3)Gal(b1-4)GlcNAc(b1-2)Man(a1-3)[Neu5Ac(a2-3)Gal(b1-4)GlcNAc(b1-3)Gal(b1-4)GlcNAc(b1-3)Gal(b1-4)GlcNAc(b1-2)Man(a1-6)]GalNAc
# Procedure, shortened: as §1
# [11] = target: Neu5Ac(a2-3)Gal(b1-4)GlcNAc(b1-3)Gal(b1-4)GlcNAc(b1-3)GalNAc
# Procedure, shortened: as §1
# [12] = target: Neu5Ac(a2-3)Gal(b1-4)GlcNAc(b1-3)Gal(b1-4)GlcNAc(b1-3)[Neu5Ac(a2-3)Gal(b1-4)GlcNAc(b1-3)Gal(b1-4)GlcNAc(b1-6)]GalNAc
# Procedure, shortened: as §1
# [13] = target: Neu5Ac(a2-3)Gal(b1-4)GlcNAc(b1-3)Gal(b1-4)GlcNAc(b1-6)[Gal(b1-3)]GalNAc
# Procedure, shortened: as §1
# [14] = target: Neu5Ac(a2-3)Gal(b1-4)GlcNAc(b1-3)Gal(b1-4)[Fuc(a1-3)]GlcNAc
# Procedure, shortened: as §1
# [15] = target: Neu5Ac(a2-3)Gal(b1-4)GlcNAc(b1-3)GalNAc
# Procedure, shortened: as §1
# [16] = target: Neu5Ac(a2-3)Gal(b1-4)GlcNAc(b1-3)[Neu5Ac(a2-3)Gal(b1-4)GlcNAc(b1-6)]GalNAc
# Procedure, shortened: as §1
# [17] = target: Neu5Ac(a2-3)Gal(b1-4)GlcNAc(b1-6)GalNAc
# Procedure, shortened: as §1
# [18] = target: Neu5Ac(a2-3)Gal(b1-4)GlcNAc(b1-6)[Gal(b1-3)]GalNAc
# Procedure, shortened: as §1
# [19] = target: Neu5Ac(a2-3)Gal(b1-4)GlcNAc(b1-6)[Neu5Ac(a2-3)Gal(b1-3)]GalNAc
# Procedure, shortened: as §1
# [20] = target: Neu5Ac(a2-3)Gal(b1-4)GlcNAc6S
# Procedure, shortened: as §1
# [21] = target: Neu5Ac(a2-3)Gal(b1-4)[Fuc(a1-3)]GlcNAc
# Procedure, shortened: as §1
# [22] = target: Neu5Ac(a2-3)Gal(b1-4)[Fuc(a1-3)]GlcNAc(b1-2)Man
# Procedure, shortened: as §1
# [23] = target: Neu5Ac(a2-3)Gal(b1-4)[Fuc(a1-3)]GlcNAc(b1-3)Gal
# Procedure, shortened: as §1
# [24] = target: Neu5Ac(a2-3)Gal(b1-4)[Fuc(a1-3)]GlcNAc(b1-3)Gal(b1-4)GlcNAc
# Procedure, shortened: as §1
# [25] = target: Neu5Ac(a2-3)Gal(b1-4)[Fuc(a1-3)]GlcNAc(b1-3)Gal(b1-4)[Fuc(a1-3)]GlcNAc(b1-3)Gal(b1-4)[Fuc(a1-3)]GlcNAc
# Procedure, shortened: as §1
# [26] = target: Neu5Ac(a2-3)Gal(b1-4)[Fuc(a1-3)]GlcNAc(b1-3)GalNAc
# Procedure, shortened: as §1
# [27] = target: Neu5Ac(a2-3)Gal(b1-4)[Fuc(a1-3)]GlcNAc(b1-6)[Gal(b1-3)]GalNAc
# Procedure, shortened: as §1
# [28] = target: Neu5Ac(a2-3)Gal(b1-4)[Fuc(a1-3)]GlcNAc(b1-6)[Neu5Ac(a2-3)Gal(b1-3)]GalNAc
# Procedure, shortened: as §1
# [29] = target: Neu5Ac(a2-3)Gal(b1-4)[Fuc(a1-3)]GlcNAc6S
# Procedure, shortened: as §1
# [30] = target: Neu5Ac(a2-3)Gal6S(b1-4)GlcNAc
# Procedure, shortened: as §1
# [31] = target: Neu5Ac(a2-3)Gal6S(b1-4)[Fuc(a1-3)]GlcNAc
# Procedure, shortened: as §1
# [32] = target: Neu5Ac(a2-3)GalNAc
# Procedure, shortened: as §1
# [33] = target: Neu5Ac(a2-3)GalNAc(b1-4)GlcNAc
# Procedure, shortened: as §1
# [34] = target: Neu5Ac(a2-3)[GalNAc(b1-4)]Gal(b1-4)Glc
# Procedure, shortened: as §1
# [35] = target: Neu5Ac(a2-3)[GalNAc(b1-4)]Gal(b1-4)GlcNAc
# Procedure, shortened: as §1
# [36] = target: Neu5Ac(a2-3)[GalNAc(b1-4)]Gal(b1-4)GlcNAc(b1-3)GalNAc
# Procedure, shortened: as §1
# [37] = target: Neu5Ac(a2-3)[Neu5Ac(a2-6)]GalNAc
# Procedure, shortened: as §1
# [38] = target: Neu5Ac(a2-6)Gal
# Procedure, shortened: as §1
# [39] = target: Neu5Ac(a2-6)Gal(b1-3)GlcNAc(b1-3)[Gal(b1-4)GlcNAc(b1-6)]Gal(b1-4)Glc
# Procedure, shortened: as §1
# [40] = target: Neu5Ac(a2-6)Gal(b1-4)Glc
# Procedure, shortened: as §1
# [41] = target: Neu5Ac(a2-6)Gal(b1-4)GlcNAc
# Procedure, shortened: as §1
# [42] = target: Neu5Ac(a2-6)Gal(b1-4)GlcNAc(b1-2)Man
# Procedure, shortened: as §1
# [43] = target: Neu5Ac(a2-6)Gal(b1-4)GlcNAc(b1-2)Man(a1-3)Man(b1-4)GlcNAc(b1-4)GlcNAc
# Procedure, shortened: as §1
# [44] = target: Neu5Ac(a2-6)Gal(b1-4)GlcNAc(b1-2)Man(a1-3)[Gal(b1-4)GlcNAc(b1-2)Man(a1-6)]Man(b1-4)GlcNAc(b1-4)GlcNAc
# Procedure, shortened: as §1
# [45] = target: Neu5Ac(a2-6)Gal(b1-4)GlcNAc(b1-2)Man(a1-3)[GlcNAc(b1-2)Man(a1-6)]Man(b1-4)GlcNAc(b1-4)GlcNAc
# Procedure, shortened: as §1
binder,measurement,setting,value
B1,glycan array binding signal (z-score),[1],-0.493
same,glycan array binding signal (z-score),[2],-0.119
same,glycan array binding signal (z-score),[3],-0.303
same,glycan array binding signal (z-score),[4],-0.472
same,glycan array binding signal (z-score),[5],-0.523
same,glycan array binding signal (z-score),[6],-0.463
same,glycan array binding signal (z-score),[7],-0.826
same,glycan array binding signal (z-score),[8],0.404
same,glycan array binding signal (z-score),[9],-0.116
same,glycan array binding signal (z-score),[10],2.75
same,glycan array binding signal (z-score),[11],0.735
same,glycan array binding signal (z-score),[12],4.06
same,glycan array binding signal (z-score),[13],0.05
same,glycan array binding signal (z-score),[14],-0.027
same,glycan array binding signal (z-score),[15],0.349
same,glycan array binding signal (z-score),[16],2.82
same,glycan array binding signal (z-score),[17],0.054
same,glycan array binding signal (z-score),[18],1.14
same,glycan array binding signal (z-score),[19],-0.458
same,glycan array binding signal (z-score),[20],-0.036
same,glycan array binding signal (z-score),[21],-0.76
same,glycan array binding signal (z-score),[22],-0.141
same,glycan array binding signal (z-score),[23],-0.678
same,glycan array binding signal (z-score),[24],1.25
same,glycan array binding signal (z-score),[25],-0.755
same,glycan array binding signal (z-score),[26],2.98
same,glycan array binding signal (z-score),[27],2.21
same,glycan array binding signal (z-score),[28],1.62
same,glycan array binding signal (z-score),[29],-0.01
same,glycan array binding signal (z-score),[30],-0.429
same,glycan array binding signal (z-score),[31],-0.803
same,glycan array binding signal (z-score),[32],-0.182
same,glycan array binding signal (z-score),[33],-0.203
same,glycan array binding signal (z-score),[34],-1.14
same,glycan array binding signal (z-score),[35],-0.734
same,glycan array binding signal (z-score),[36],1.15
same,glycan array binding signal (z-score),[37],-0.143
same,glycan array binding signal (z-score),[38],0.044
same,glycan array binding signal (z-score),[39],-0.719
same,glycan array binding signal (z-score),[40],-0.117
same,glycan array binding signal (z-score),[41],-0.069
same,glycan array binding signal (z-score),[42],0.053
same,glycan array binding signal (z-score),[43],0.128
same,glycan array binding signal (z-score),[44],0.082
same,glycan array binding signal (z-score),[45],-0.177

# A portion from further up, for reference:
binder,measurement,setting,value
B1,glycan array binding signal (z-score),[29],-0.01
same,glycan array binding signal (z-score),[30],-0.429
same,glycan array binding signal (z-score),[31],-0.803
same,glycan array binding signal (z-score),[32],-0.182
